Reference: PubChem BioAssay AID248 (DTP/NCI, 2004)
The list is a part of this screen's results and no random one: it is rich in T/C values a quarter to a half above the control, in often repeated tests (any T/C) and in doses without a T/C. Other doses and runs of a compound stand elsewhere. T/C is the treated group as % of the vehicle group. Some doses have a count of surviving animals in place of a T/C: the source holds a T/C of zero for them, seemingly a mark for toxic or unscored doses. Some survivor counts are full or nearly so, which does not show that the dose was tolerated: survival well below the control is almost never listed, so the zero probably covers shortened survival too. Counts of survivors are from the toxicity check (mostly the fifth day) where no day follows; animals may have died later. Schedules are NCI's codes, read here as Q, the interval in days (D) or hours (H), X, the number of doses. Some entries hold several experiments; their values stand side by side, smallest first. Some schedule codes hold Z or #, which are not explained here. For survival time, this PubChem deposit counts one and a half times the control or more as active, and values a quarter to a half above the control carry no call in these data; other NCI protocols may use other cut-offs. Some T/C values carry the count of animals alive at the toxicity check (mostly the fifth day); where none is given, no animal had died by that day.

Tested on: L1210 leukemia ip in BDF1 mice, survival T/C
Test: NCI In Vivo Anticancer Drug Screen. Data for tumor model L1210 Leukemia (intraperitoneal) in B6D2F1 (BDF1) mice
Details: T/C endpoint: mean survival time, higher T/C = longer survival
[1] = dose: 200.0 mg/kg/injection, schedule: Q04DX003 (ip), vehicle: saline with Tween-80
[2] = dose: 400.0 mg/kg/injection, schedule: Q01DX009 (ip), vehicle: Klucel (hydroxypropylcellulose) (HPC)
[3] = dose: 400.0 mg/kg/injection, schedule: Q04DX003 (ip), vehicle: saline with Tween-80
[4] = dose: 100.0 mg/kg/injection, schedule: Q01DX009 (ip), vehicle: Klucel (hydroxypropylcellulose) (HPC)
[5] = dose: 200.0 mg/kg/injection, schedule: Q01DX009 (ip), vehicle: Klucel (hydroxypropylcellulose) (HPC)
[6] = dose: 200.0 mg/kg/injection, schedule: Q01DX009 (ip), vehicle: saline with Tween-80
[7] = dose: 100.0 mg/kg/injection, schedule: Q01DX009 (ip), vehicle: saline with Tween-80
[8] = dose: 400.0 mg/kg/injection, schedule: Q04DX002 (ip), vehicle: saline with Tween-80

For `CC(=O)Nc1cccc2cccnc12`, the survivor count (dose: 150.0 mg/kg/injection, schedule: Q01DX009 (ip), vehicle: other) was 0 of 6, the survivor count [1] was 3 of 6 and the survivor count (dose: 300.0 mg/kg/injection, schedule: Q01DX009 (ip), vehicle: other) was 6 of 6. The survivor count [2] was 0 of 6, the survivor count (dose: 400.0 mg/kg/injection, schedule: Q01DX009 (ip), vehicle: saline) was 0 of 6 and the survivor count [3] was 1 of 6.

With `C#CCSC(C)C` the T/C (dose: 100.0 mg/kg/injection, schedule: Q04DX002 (ip), vehicle: saline) was 136 % of control.

With `O=C(c1ccccc1)c1ccc[n+](Cc2c(Cl)cccc2Cl)c1` the survivor count (dose: 150.0 mg/kg/injection, schedule: Q01DX001 (ip), vehicle: saline) was 1 of 6 and the survivor count (dose: 300.0 mg/kg/injection, schedule: Q01DX001 (ip), vehicle: saline) was 0 of 6.

With `CCCCCCCCCC(=O)N/N=C\c1cccc2ccccc12` the survivor count [4] was 6 of 6, the survivor count [5] was 6 of 6 and the survivor count [2] was 6 of 6.

For `O=C(Nc1ccc(C2=NCCN2)cc1)c1ccc(Br)c(C(=O)Nc2ccc(C3=NCCN3)cc2)c1`, the survivor count (dose: 40.0 mg/kg/injection, schedule: Q01DX Z (ip), vehicle: water) was 0 of 6, the survivor count (dose: 60.0 mg/kg/injection, schedule: Q01DX Z (ip), vehicle: saline) was 1 of 6 and the survivor count (dose: 120.0 mg/kg/injection, schedule: Q01DX Z (ip), vehicle: saline) was 0 of 6.

`COC(C(OC)N1CCOCC1)N1CCOCC1` (stereo unspecified) was tested, and the T/C (dose: 200.0 mg/kg/injection, schedule: Q01DX009 (ip), vehicle: saline) was 128 % of control [4 of 6 alive].

With `Cc1ccc(C)c(NC(=O)Nc2ccc(Nc3ccccc3)cc2)c1` the survivor count [5] was 6 of 6.

For `NC(N)=N/N=C/c1c(O)ccc2ccccc12`, the T/C (dose: 62.5 mg/kg/injection, schedule: Q01DX010 (oral), vehicle: saline) was 135 % of control [5 of 6 alive], the survivor count (dose: 125.0 mg/kg/injection, schedule: Q01DX010 (oral), vehicle: saline) was 1 of 6 and the survivor count (dose: 125.0 mg/kg/injection, schedule: Q01DX Z (oral), vehicle: saline) was 1 of 6. The survivor count (dose: 250.0 mg/kg/injection, schedule: Q01DX Z (oral), vehicle: saline) was 0 of 6, the survivor count (dose: 500.0 mg/kg/injection, schedule: Q01DX Z (oral), vehicle: saline) was 0 of 6 and the survivor count (dose: 1000.0 mg/kg/injection, schedule: Q01DX Z (oral), vehicle: saline) was 0 of 6.

With `COc1ccc(CCN)cc1F` the survivor count (dose: 400.0 mg/kg/injection, schedule: Q04DX002 (ip), vehicle: Klucel (hydroxypropylcellulose) (HPC)) was 1 of 3.

In the case of `CCOC(=O)c1cnn(C(N)=S)c1N`, the survivor count [6] is reported as 4 of 6.

`COC(=O)c1ccc(N)cc1O` was tested, and the survivor count [2] was 4 of 6.

For `O=C(O)C(O)C(O)C(O)C(O)C(=O)O` (stereo unspecified), the survivor count (dose: 600.0 mg/kg/injection, schedule: Q01DX001 (ip), vehicle: saline) was 6 of 6.

In the case of `Nc1ccc(SCCCCCCSc2ccc(N)cc2)cc1`, the survivor count (dose: 200.0 mg/kg/injection, schedule: Q04DX003 (ip), vehicle: other) is reported as 6 of 6 and the survivor count (dose: 400.0 mg/kg/injection, schedule: Q04DX003 (ip), vehicle: other) is reported as 4 of 6.

In the case of `CCN(C(=O)NC(C)(C)C)c1cccc(C)c1`, the T/C (dose: 50.0 mg/kg/injection, schedule: Q01DX009 (ip), vehicle: saline with Tween-80) is reported as 94, 97, 98, 106 % of control, the T/C [7] is reported as 101 and 108 % of control and the survivor count [7] is reported as 1 of 3 and 2 of 6. The survivor count (dose: 200.0 mg/kg/injection, schedule: Q01DX001 (ip), vehicle: saline with Tween-80) was 0 of 3, the survivor count [6] was 0 of 3 and 0 of 6 and the survivor count [8] was 3 of 6. The survivor count [3] was 5 of 6.

For `O=C(CCCCCCCCC(=O)Nc1cccc(C2=NCCN2)c1)Nc1cccc(C2=NCCN2)c1`, the survivor count (dose: 15.0 mg/kg/injection, schedule: Q01DX Z (ip), vehicle: methylcellulose (MC)) was 0 of 6, the survivor count (dose: 30.0 mg/kg/injection, schedule: Q01DX Z (ip), vehicle: methylcellulose (MC)) was 0 of 6 and the survivor count (dose: 60.0 mg/kg/injection, schedule: Q01DX Z (ip), vehicle: methylcellulose (MC)) was 0 of 6.

`CCC(=O)O[C@H]1CC[C@H]2[C@@H]3[C@@H](C)CC4=CC(=O)CC[C@]4(C)[C@H]3CC[C@]12C` was tested, and the survivor count [6] was 6 of 6.

With `ONC(=NCc1ccccc1)c1ccccc1` the survivor count (dose: 400.0 mg/kg/injection, schedule: Q01DX001 (ip), vehicle: carboxymethylcellulose (CMC)) was 1 of 4.

With `O=NN(CCCl)C(=O)Nc1ncc([N+](=O)[O-])s1` the T/C (dose: 250.0 mg/kg/injection, schedule: Q01DX001 (ip), vehicle: other) was 129 % of control [9 of 10 alive], the survivor count (dose: 375.0 mg/kg/injection, schedule: Q01DX001 (ip), vehicle: other) was 6 of 10 and the survivor count (dose: 500.0 mg/kg/injection, schedule: Q01DX001 (ip), vehicle: other) was 2 of 10.

`CC(C)(C)S/C=C/C(N)=O` was tested, and the survivor count (dose: 400.0 mg/kg/injection, schedule: Q01DX001 (ip), vehicle: saline) was 6 of 6.

`COc1ccc(COC(=O)NC2CCCCC2)cc1OC` was tested, and the T/C (dose: 100.0 mg/kg/injection, schedule: Q01DX009 (ip), vehicle: saline) was 128 % of control.

In the case of `C=C1CC(c2ccccc2)(c2cccs2)OC1=O` (stereo unspecified), the survivor count (dose: 400.0 mg/kg/injection, schedule: Q04DX003 (ip), vehicle: Klucel (hydroxypropylcellulose) (HPC)) is reported as 6 of 6.

With `CCN1CCC(CNc2cc(C)nc(/N=C(\N)Nc3cc(Cl)cc(Cl)c3)n2)C1` (stereo unspecified) the survivor count (dose: 100.0 mg/kg/injection, schedule: Q04DX003 (ip), vehicle: saline with Tween-80) was 5 of 6, the survivor count [1] was 1 of 6 and the survivor count [3] was 6 of 6.

For `Nc1cc(I)c2cccnc2c1O`, the survivor count (dose: 40.0 mg/kg/injection, schedule: Q01DX015 (ip), vehicle: saline) was 5 of 6 and the survivor count (dose: 80.0 mg/kg/injection, schedule: Q01DX015 (ip), vehicle: saline) was 0 of 6.

With `CN1CN(c2ccccc2)C2(CCN(CCCC3Cc4ccccc4O3)CC2)C1=O` (stereo unspecified) the survivor count (dose: 100.0 mg/kg/injection, schedule: Q01DX001 (ip), vehicle: Klucel (hydroxypropylcellulose) (HPC)) was 2 of 6, the survivor count (dose: 200.0 mg/kg/injection, schedule: Q01DX001 (ip), vehicle: Klucel (hydroxypropylcellulose) (HPC)) was 2 of 6 and the survivor count (dose: 400.0 mg/kg/injection, schedule: Q01DX001 (ip), vehicle: Klucel (hydroxypropylcellulose) (HPC)) was 1 of 6.

For `Cc1ccc(N=C=S)cc1F`, the survivor count (dose: 150.0 mg/kg/injection, schedule: Q01DX001 (ip), vehicle: other) was 2 of 6 and the survivor count (dose: 300.0 mg/kg/injection, schedule: Q01DX001 (ip), vehicle: other) was 0 of 6.

`CCOCc1cnc(C)nc1N` was tested, and the survivor count (dose: 400.0 mg/kg/injection, schedule: Q01DX001 (ip), vehicle: saline with Tween-80) was 0 of 3.

`O=C(O)c1cccc2c1OCO2` was tested, and the survivor count [8] was 3 of 3.

`CC(=O)NC1CCc2ccccc2-c2cccc(=O)cc21` (stereo unspecified) was tested, and the T/C (dose: 0.2 mg/kg/injection, schedule: Q01DX009 (ip), vehicle: saline) was 131 % of control, the T/C (dose: 0.39 mg/kg/injection, schedule: Q01DX009 (ip), vehicle: Klucel (hydroxypropylcellulose) (HPC)) was 132 % of control and the T/C (dose: 0.39 mg/kg/injection, schedule: Q01DX009 (ip), vehicle: saline) was 132 % of control. The survivor count (dose: 1.56 mg/kg/injection, schedule: Q01DX009 (ip), vehicle: Klucel (hydroxypropylcellulose) (HPC)) was 3 of 6, the survivor count (dose: 3.13 mg/kg/injection, schedule: Q01DX009 (ip), vehicle: Klucel (hydroxypropylcellulose) (HPC)) was 3 of 6 and the survivor count (dose: 6.25 mg/kg/injection, schedule: Q01DX009 (ip), vehicle: Klucel (hydroxypropylcellulose) (HPC)) was 0 of 6. For the same compound, the survivor count (dose: 12.5 mg/kg/injection, schedule: Q01DX009 (ip), vehicle: Klucel (hydroxypropylcellulose) (HPC)) was 0 of 6, the survivor count (dose: 25.0 mg/kg/injection, schedule: Q01DX009 (ip), vehicle: Klucel (hydroxypropylcellulose) (HPC)) was 0 of 6 and the survivor count (dose: 50.0 mg/kg/injection, schedule: Q01DX009 (ip), vehicle: Klucel (hydroxypropylcellulose) (HPC)) was 0 of 6. The survivor count [4] was 0 of 6, the survivor count [5] was 0 of 6 and the survivor count [2] was 0 of 6.
